Results as given in PMC2763855.
These are yes or no findings as the source states them, for the method shown. For part of these data: Binding seen in cells or lysates may run through a third protein. Some entries that bind do so weakly or less than the wild type. Sequences can lack the tags named with a protein.

Chains of the proteins cited; added tags and fusions are not shown.
UniProt Q9Y5X1: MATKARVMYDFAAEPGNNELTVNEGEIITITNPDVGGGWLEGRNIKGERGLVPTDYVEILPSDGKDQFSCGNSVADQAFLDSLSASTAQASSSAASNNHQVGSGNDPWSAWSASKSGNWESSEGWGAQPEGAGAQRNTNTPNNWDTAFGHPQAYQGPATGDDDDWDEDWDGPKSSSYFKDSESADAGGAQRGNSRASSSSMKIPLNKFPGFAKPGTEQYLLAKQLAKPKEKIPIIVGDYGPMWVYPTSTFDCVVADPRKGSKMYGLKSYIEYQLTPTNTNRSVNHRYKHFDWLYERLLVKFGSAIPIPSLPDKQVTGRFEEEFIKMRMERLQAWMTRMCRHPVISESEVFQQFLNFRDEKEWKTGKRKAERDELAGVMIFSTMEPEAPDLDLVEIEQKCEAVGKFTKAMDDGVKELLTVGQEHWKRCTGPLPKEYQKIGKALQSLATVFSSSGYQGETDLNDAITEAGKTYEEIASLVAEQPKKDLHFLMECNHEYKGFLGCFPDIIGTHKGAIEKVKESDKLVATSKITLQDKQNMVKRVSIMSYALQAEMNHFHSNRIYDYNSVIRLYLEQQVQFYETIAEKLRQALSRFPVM

B1: fourth SH3 domain of SH3 and PX domain containing protein 2B, displayed on phage (domain or fragment, UniProt A1X283 850-911)
chain: LKDSLYVAVADFEGDKDTSSFQEGTVFEVREKNSSGWWFCQVLSGAPSWEGWIPSNYLRKKP
B2: third SH3 domain of putative E3 ubiquitin protein ligase SH3RF2, displayed on phage (domain or fragment, UniProt Q8TEC5 380-441)
chain: LSANMFVALHSYSAHGPDELDLQKGEGVRVLGKCQDGWLRGVSLVTGRVGIFPNNYVIPIFR
B3: SH3 domain 2/2 of vinexin, displayed on phage (domain or fragment, UniProt O60504 454-515)
chain: LEYGEAVAQYTFKGDLEVELSFRKGEHICLIRKVNENWYEGRITGTGRQGIFPASYVQVSRE
B4: fifth SH3 domain of SH3 and PX domain containing protein 2A, displayed on phage (domain or fragment, UniProt Q5TCZ1 1072-1133)
chain: NLKDVYVSIADYEGDEETAGFQEGVSMEVLERNPNGWWYCQILDGVKPFKGWVPSNYLEKKN
B5: HA-tagged full length SNX18 (protein, UniProt Q96RF0 1-628)
chain: MALRARALYDFRSENPGEISLREHEVLSLCSEQDIEGWLEGVNSRGDRGLFPASYVQVIRAPEPGPAGDGGPGAPARYANVPPGGFEPLPVAPPASFKPPPDAFQALLQPQQAPPPSTFQPPGAGFPYGGGALQPSPQQLYGGYQASQGSDDDWDDEWDDSSTVADEPGALGSGAYPDLDGSSSAGVGAAGRYRLSTRSDLSLGSRGGSVPPQHHPSGPKSSATVSRNLNRFSTFVKSGGEAFVLGEASGFVKDGDKLCVVLGPYGPEWQENPYPFQCTIDDPTKQTKFKGMKSYISYKLVPTHTQVPVHRRYKHFDWLYARLAEKFPVISVPHLPEKQATGRFEEDFISKRRKGLIWWMNHMASHPVLAQCDVFQHFLTCPSSTDEKAWKQGKRKAEKDEMVGANFFLTLSTPPAAALDLQEVESKIDGFKCFTKKMDDSALQLNHTANEFARKQVTGFKKEYQKVGQSFRGLSQAFELDQQAFSVGLNQAIAFTGDAYDAIGELFAEQPRQDLDPVMDLLALYQGHLANFPDIIHVQKGKAWPLEQVIWSVLCRLKGATLTAVPLWVSESYSTGEEASRDVDAWVFSLECKLDCSTGSFLLEYLALGNEYSFSKVQRVPLMTVLSF
B6: HA-tagged full length SNX33 (protein, UniProt Q8WV41 1-574)
chain: MALKGRALYDFHSENKEEISIQQDEDLVIFSETSLDGWLQGQNSRGETGLFPASYVEIVRSGISTNHADYSSSPAGSPGAQVSLYNSPSVASPARSGGGSGFLSNQGSFEEDDDDDWDDWDDGCTVVEEPRAGGLGTNGHPPLNLSYPGAYPSQHMAFRPKPPLERQDSLASAKRGSVVGRNLNRFSCFVRSGVEAFILGDVPMMAKIAETYSIEMGPRGPQWKANPHPFACSVEDPTKQTKFKGIKSYISYKLTPTHAASPVYRRYKHFDWLYNRLLHKFTVISVPHLPEKQATGRFEEDFIEKRKRRLILWMDHMTSHPVLSQYEGFQHFLSCLDDKQWKMGKRRAEKDEMVGASFLLTFQIPTEHQDLQDVEDRVDTFKAFSKKMDDSVLQLSTVASELVRKHVGGFRKEFQKLGSAFQAISHSFQMDPPFCSEALNSAISHTGRTYEAIGEMFAEQPKNDLFQMLDTLSLYQGLLSNFPDIIHLQKGAFAKVKESQRMSDEGRMVQDEADGIRRRCRVVGFALQAEMNHFHQRRELDFKHMMQNYLRQQILFYQRVGQQLEKTLRMYDNL

Columns and labels:
[1] = target: T1, GST-Itk SH3 domain fusion protein (UniProt Q08881); assay: pull-down; recombinant GST-Itk SH3 domain fusion protein; whole cell lysates of stably FasL transfected KFL9 and JFL39.1 cells; Western blot for FasL with mAb G247-4; only the target purified
T1 sequence: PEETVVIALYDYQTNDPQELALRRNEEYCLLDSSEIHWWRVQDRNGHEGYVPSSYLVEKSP

[2] = target: T2, GST-hFasL(1-80) fusion protein (human) (UniProt P48023); assay: pull-down; GST-hFasL(1-80) or GST with glutathione sepharose beads, overnight; NP-40 lysates of HEK 293 T cells transfected with HA-tagged sorting nexins; four washes with NP-40 lysis buffer; Western blot with anti-HA mAb 3F10; only the target purified
T2 sequence: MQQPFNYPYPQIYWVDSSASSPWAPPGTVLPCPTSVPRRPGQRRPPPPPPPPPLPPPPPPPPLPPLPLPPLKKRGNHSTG

[3] = target: T2, GST-hFasL(1-80) fusion protein (human); assay: phage display library panning; GST-hFasL(1-80) covalently bound to epoxy magnetic beads (Dynabeads M-270); library of 288 human SH3 domains as pVIII fusions on phage, 6 x 10^9 PFU, 1.5 h at room temperature; washes with 0.15% or 0.5% Tween-20; bound clones sequenced; domains also found in the GST panning excluded; only the target purified

| Molecule | binding [2] | binding [3] | further results |
| --- | --- | --- | --- |
| FasL stably expressed in KFL9 cells (from UniProt P48023 1-281) |  |  | binding [1]: binds |
| HA-tagged full length SNX9 (from UniProt Q9Y5X1 1-595) | binds |  |  |
| FasL stably expressed in JFL39.1 cells (from UniProt P48023 1-281) |  |  | binding [1]: binds |
| B1 |  | binds |  |
| B2 |  | binds |  |
| B3 |  | binds |  |
| B4 |  | binds |  |
| B5 | binds |  |  |
| B6 | binds |  |  |
